Test: general procedure: solution-phase peptide synthesis; N-oxysuccinimidyl esters (BocGlyONSu or BocGly2ONSu), activated esters method
Details: for conjugation yield: conjugation step, hydrochlorides or trifluoroacetates; for step yield: late stage modification step, HCl

“Neu5Ac-sp1-Gly5-NH(CH2)2NH-Gly5-sp1-Neu5Ac” showed a conjugation yield of 68%.
For “3’SL-sp3-Gly6-NH(CH2CH2O)3CH2CH2NH-Gly6-sp3-3’SL”, the conjugation yield was 51%.
For HCl*Gly4-NH(СH2)2NH-Gly4*HCl, the step yield was 91%.
HCl*Gly7-NH(CH2CH2O)3CH2CH2NH-Gly7*HCl gave a step yield of 88%.
“6’SLN-sp2-Gly5-NH(CH2CH2O)3CH2CH2NH-Gly5-sp2-6’SLN” gave a conjugation yield of 69%.
HCl*Gly4-NH(CH2CH2O)3CH2CH2NH-Gly4*HCl gave a step yield of 95%.
For “Neu5Ac-sp1-Gly6-NH(CH2)2NH-Gly6-sp1-Neu5Ac”, the conjugation yield was 92%.
HCl*Gly5-NH(CH2CH2O)3CH2CH2NH-Gly5*HCl gave a step yield of 92%.
In the case of “6’SLN-sp2-Gly6-NH(CH2CH2O)3CH2CH2NH-Gly6-sp2-6’SLN”, the conjugation yield is reported as 43%.
For “Neu5Ac-sp1-Gly4-NH(CH2)10NH-Gly4-sp1-Neu5Ac”, the conjugation yield was 74%.
HCl*Gly5-NH(СH2)2NH-Gly5*HCl gave a step yield of 46%.
In the case of HCl*Gly6-NH(СH2)2NH-Gly6*HCl, the step yield is reported as 68%.
Work on “Neu5Ac-sp1-Gly5-NH(CH2)10NH-Gly5-sp1-Neu5Ac” yielded a conjugation yield of 53%.
HCl*Gly6-NH(CH2CH2O)3CH2CH2NH-Gly6*HCl showed a step yield of 91%.
With “3’SL-sp3-Gly5-NH(CH2CH2O)3CH2CH2NH-Gly5-sp3-3’SL” the conjugation yield was 57%.
